Data as given in patent US5298488A, “CM-chitin derivatives and use thereof” (Fuji Photo Film Co., Ltd., priority 1990, dated 1994).
Not every detail of the peptide structures is certain; ends, links or a residue may be inferred.

Experiments:
fibronectin = assay: Cell adhesion-inhibitory test against fibronectin (competitive assay, number of adhered cells); format: cell-based, human; details: endothelium cells of blood vessel, 37° C., one hour, 0 mg/ml control 160
Excerpt: (§1) A method for determining the activity of the CM-chitin derivatives of the present invention for inhibiting adhesion of cells to fibronectin or vitronectin will be described below. The competitive assays used herein have widely been employed tin the field of biochemistry and are detailed in, for instance, "Method in Enzymology", 1981, 82, pp. 803-831; and J. P. KOKAI Nos. Hei 1-309682 and Hei 2-174797.
(§2) Commercially available fibroneotin (derived from human; purchased from Seikaqaku Kogyo K. K.) and vitronectin (derived from human; purchased from Funakoshi Co., Ltd.) each was diluted to 1.0 μ1/ml and 2.0 μ1/ml with PBS (NaH2 PO4 0.005 M+NaCl 0.07 M), 0.5 ml of the resulting diluted solution was dispensed into a plastic plate having 24 wells and incubated at 37° C. overnight to perform coating of the plate. Then bovine serum albumin (BSA 1%) was added followed by incubation at 37° C. for one hour for inhibiting the occurrence of nonspecific adsorption, then washing with PBS in the usual manner and sufficient drainage to give an adsorption plate.
(§3) A CM-chitin derivative obtained through lyophilization was diluted with Dulbecco's Modified Eagles Medium (hereunder referred to as "DMEM") to give solutions of the CM-chitin derivative having concentrations of 0, 0.25, 0.5, 1.0 and 1.5 mg/ml respectively. Each of the solutions (0.25 ml) was dispensed to the plate prepared above, 0.25 ml of a suspension of endothelium cells of blood vessel (4×10^6 cells/ml) was added to the plate and incubated at 37° C. for one hour to thus cause cohesion of the cells. The plate was washed three times with DMEM medium to remove non-adhesive cells, then the adhered cells were peeled off with a 0.025% EDTA trypsin solution and stained with a 2% Trypan Blue solution to determine the number of the adhered cells.

vitronectin = assay: Cell adhesion-inhibitory test against vitronectin (competitive assay, number of adhered cells); format: cell-based, human; details: endothelium cells of blood vessel, 37° C., one hour, 0 control 249
Excerpt: as §1, §2
as §3, with “A CM-chitin derivative obtained through lyophilization was diluted with Dulbecco's Modified Eagles Medium (hereunder referred to as "DMEM") to give solutions of the CM-chitin derivative having concentrations of 0, 0.25, 0.5, 1.0 and 1.5 mg/ml respectively.” left out

[1] = test system: human plasma rich in platelet; assay: Platelet coagulation-inhibitory activity in vitro, transmittance by aggregometer; format: cell-based; details: 37° C., 3 minutes preincubation
Protocol: The platelet coagulation-inhibitory effect of the CM-chitin derivative of the present invention was assayed, in vitro, using human plasma rich in platelet. The experimental method will be described below.
To fresh human blood, there was added 1/9 volume of a 3.8% sodium citrate solution, the resulting mixture was centrifuged (1000 rpm; for 10 minutes) and the upper layer was separated as a plasma rich in platelet. A lyophilized CM-chitin derivative was dissolved in physiological saline to give a plurality of solutions having various concentrations ranging from 0 to 1.5 mg/ml. Each of the solutions (25 μ1) was added to 200 µl of the plasma, incubated at 37° C. for 3 minutes, then a 50 μM of ADP (adenosine diphosphate) solution or a 200 μg/ml collagen solution was added to determine the extent of coagulation in terms of transmittance determined by an aggregometer.
Rate of Coagulation Inhibition=(1-T/T .)×100%
T . : transmittance observed when a salt of CM-chitin derivative was not added.
T : transmittance observed when a salt of CM-chitin derivative was added.

N=C(N)NCCC[C@H](NC(=O)CN)C(=O)NCC(=O)N[C@@H](CC(=O)O)C(=O)N[C@@H](CO)C(=O)O [GlyArgGlyAspSer, Gly-Arg-Gly-Asp-Ser, reference compound]
Cell Adhesion-Inhibitory effect Against Fibronectin (number of adhered cells) (fibronectin; concentration 0.5 mg/ml): 140 cell/well
Cell Adhesion-Inhibitory effect Against Fibronectin (number of adhered cells) (fibronectin; concentration 1.0 mg/ml): 95 cell/well
Cell Adhesion-Inhibitory effect Against Fibronectin (number of adhered cells) (fibronectin; concentration 1.5 mg/ml): 80 cell/well
Cell Adhesion-Inhibitory effect Against Fibronectin (number of adhered cells) (fibronectin; concentration .25 mg/ml): 154 cell/well
Cell Adhesion-Inhibitory effect Against Vitronectin (number of adhered cells) (vitronectin; concentration 10 mg/ml (so in the source)): 157 cell/well
Cell Adhesion-Inhibitory effect Against Vitronectin (number of adhered cells) (vitronectin; concentration 50 mg/ml (so in the source)): 116 cell/well
Cell Adhesion-Inhibitory effect Against Vitronectin (number of adhered cells) (vitronectin; concentration 100 mg/ml (so in the source)): 87 cell/well
Cell Adhesion-Inhibitory effect Against Vitronectin (number of adhered cells) (vitronectin; concentration 300 mg/ml (so in the source)): 61 cell/well
Platelet Coagulation-Inhibitory Action IC50, ADP Stimulation ([1]; ADP stimulation (50 μM ADP solution)): 31 µg/mL
Platelet Coagulation-Inhibitory Action IC50, Collagen Stimulation ([1]; collagen stimulation (200 μg/ml collagen solution)): 18 µg/mL
